Variants at the floor of the assay are shown more often than the library holds them.
Assays:
biotinyl-Phe-oxazolone = experiment: self-aminoacylation, catalytic enhancement (BFO) (fold over background); higher = more active; k-Seq, kA / k0A0; sequences stand for … in GGGAAUGGAUCCACAUCUACGAAUUC…UUCACUGCAGACUUGACGAAGCUG
How it was run: (§1)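 The uncatalyzed rate is the low-activity peak of a bimodal Gaussian fit, and catalytic enhancement is median kA divided by it. The kA values came from pseudo-first-order fits, with 1000 bootstraps, of per-sequence fraction reacted measured by streptavidin capture, triplicate qPCR and Illumina sequencing. Mutagenized RNA pools with a 21-nt variable region (0.43 μM) were reacted with each biotinyl-aminoacyl-oxazolone at 2–1250 μM in 50 μL HEPES/NaCl/KCl/MgCl2/CaCl2 buffer with 5% acetonitrile, pH 6.9–7.0, for 90 minutes at room temperature.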

biotinyl-Ile-oxazolone = experiment: self-aminoacylation, catalytic enhancement (BIO) (fold over background); higher = more active; k-Seq, kA / k0A0; sequences stand for … in GGGAAUGGAUCCACAUCUACGAAUUC…UUCACUGCAGACUUGACGAAGCUG
How it was run: as §1

biotinyl-Leu-oxazolone = experiment: self-aminoacylation, catalytic enhancement (BLO) (fold over background); higher = more active; k-Seq, kA / k0A0; sequences stand for … in GGGAAUGGAUCCACAUCUACGAAUUC…UUCACUGCAGACUUGACGAAGCUG
How it was run: as §1

biotinyl-Trp-oxazolone = experiment: self-aminoacylation, catalytic enhancement (BWO) (fold over background); higher = more active; k-Seq, kA / k0A0; sequences stand for … in GGGAAUGGAUCCACAUCUACGAAUUC…UUCACUGCAGACUUGACGAAGCUG
How it was run: as §1

biotinyl-Met-oxazolone = experiment: self-aminoacylation, catalytic enhancement (BMO) (fold over background); higher = more active; k-Seq, kA / k0A0; sequences stand for … in GGGAAUGGAUCCACAUCUACGAAUUC…UUCACUGCAGACUUGACGAAGCUG
How it was run: as §1

biotinyl-Val-oxazolone = experiment: self-aminoacylation, catalytic enhancement (BVO) (fold over background); higher = more active; k-Seq, kA / k0A0; sequences stand for … in GGGAAUGGAUCCACAUCUACGAAUUC…UUCACUGCAGACUUGACGAAGCUG
How it was run: as §1

Sequence | self-aminoacylation (biotinyl-Phe-oxazolone) | self-aminoacylation (biotinyl-Ile-oxazolone) | self-aminoacylation (biotinyl-Leu-oxazolone) | self-aminoacylation (biotinyl-Trp-oxazolone) | self-aminoacylation (biotinyl-Met-oxazolone) | self-aminoacylation (biotinyl-Val-oxazolone)
AAAUUUGCGAAUAGUCGCAAG [Fam3.1 aminoacylation ribozyme variant] | 1.99 | 1.71 | 1.33 | 1.54 | 1.59 | 1.56
AAAUUUGCUAAUUGUCGCAAG [Fam3.1 aminoacylation ribozyme variant] | 1.59 | 1.67 | 1.44 | 1.94 | – | 1.78
AACUUUGCUAAUAGACGCAAG [Fam3.1 aminoacylation ribozyme variant] | 1.49 | 1.59 | 1.08 | 1.18 | 1.22 | 1.55
AACUUUGGUAAUAGUCGCAAG [Fam3.1 aminoacylation ribozyme variant] | 3.84 | 2.58 | 3.08 | 2.24 | 2.22 | 2.15
AAGAUAGCUAAUAGUCGCAAG [Fam3.1 aminoacylation ribozyme variant] | 2.4 | 1.63 | 1.82 | 1.34 | 1.57 | 1.34
AAGAUUCCUAAUAGUCGCAAG [Fam3.1 aminoacylation ribozyme variant] | 0.831 | 1.26 | 0.939 | 0.755 | 0.951 | 1.53
AAGAUUGCUAAUAGUCGCAAU [Fam3.1 aminoacylation ribozyme variant] | 2.37 | 1.54 | 1.37 | 1.14 | 1.85 | 1.41
AAGAUUGCUAAUAGUCGCACG [Fam3.1 aminoacylation ribozyme variant] | 1.12 | 1.18 | 1.36 | 1.97 | 1.65 | 1.62
AAGGUCGCUAAUAGUCGCAAG [Fam3.1 aminoacylation ribozyme variant] | 2.86 | 1.98 | 1.81 | 2.4 | 1.94 | 2.13
AAGGUUGCUAAAAGUCGCAAG [Fam3.1 aminoacylation ribozyme variant] | 4.28 | 1.62 | 1.6 | 1.93 | 1.52 | 1.67
AAGUAUGCUAAUACUCGCAAG [Fam3.1 aminoacylation ribozyme variant] | 1.04 | 1.1 | 1.09 | 1.35 | 1.32 | 1.12
AAGUCUGCUAAUAGUCUCAAG [Fam3.1 aminoacylation ribozyme variant] | 19.4 | 1.14 | 1.43 | 4.59 | 1.76 | 1.2
AAGUGUGAUAAUAGUCGCAAG [Fam3.1 aminoacylation ribozyme variant] | 0.975 | 1.29 | 1.09 | 1.9 | 0.967 | 1.25
AAGUGUGCUAAUAGACGCAAG [Fam3.1 aminoacylation ribozyme variant] | 1.03 | 0.745 | 0.504 | 0.701 | 0.553 | 0.721
AAGUGUGCUAAUAGGCGCAAG [Fam3.1 aminoacylation ribozyme variant] | 0.73 | 1.07 | 1.1 | 1.08 | 1.07 | 1.1
AAGUGUGCUAUUAGUCGCAAG [Fam3.1 aminoacylation ribozyme variant] | 2.19 | 1.29 | 0.947 | 0.997 | 1.36 | 1.43
AAGUUAGGUAAUAGUCGCAAG [Fam3.1 aminoacylation ribozyme variant] | 1.47 | 1.49 | 1.28 | – | 1.38 | 1.26
AAUUUUGCUAAUAGUCGCUAG [Fam3.1 aminoacylation ribozyme variant] | 1.98 | 1.37 | 1.48 | – | 1.59 | 1.49
AUCACCCUGGUCAUCGAGCGA [Fam2.1 aminoacylation ribozyme variant] | 1.06 | – | – | – | – | –
AUUACCCGGGUCAUCGAGUUA [Fam2.1 aminoacylation ribozyme variant] | 1.22 | 1.52 | 1.3 | – | 1.45 | 1.58
AUUACCCUGGGCUUCGAGUGA [Fam2.1 aminoacylation ribozyme variant] | 1.66 | 1.33 | 1.99 | – | – | 1.65
AUUACCCUGGUCAUGGAGUGG [Fam2.1 aminoacylation ribozyme variant] | 0.877 | 1.29 | 1.93 | – | 1.58 | 1.27
AUUCACCUAGGUCACCGGGUC [Fam2.2 aminoacylation ribozyme variant] | 1.59 | 1.62 | 1.01 | 1.28 | 1.91 | –
AUUCACGUAGGUCAUCGGGAG [Fam2.2 aminoacylation ribozyme variant] | 0.881 | 1.49 | 1.94 | 1.91 | – | –
CCAAACUUCAAGCAAUCGGGC [Fam1B.1 aminoacylation ribozyme variant] | 1.21 | – | 1.73 | – | – | –
CCACAAUUCAAGCAAUCGGGC [Fam1B.1 aminoacylation ribozyme variant] | 1.27 | – | 1.44 | – | – | 1.97
CCACACGUCAAGCAAUCGCUC [Fam1B.1 aminoacylation ribozyme variant] | 1.58 | 1.91 | 1.66 | 1.89 | – | –

Sequence | self-aminoacylation (biotinyl-Phe-oxazolone) | self-aminoacylation (biotinyl-Ile-oxazolone) | self-aminoacylation (biotinyl-Leu-oxazolone) | self-aminoacylation (biotinyl-Trp-oxazolone) | self-aminoacylation (biotinyl-Met-oxazolone) | self-aminoacylation (biotinyl-Val-oxazolone)
CCACACUUCAAGAAAUCGGUU [Fam1B.1 aminoacylation ribozyme variant] | 1.82 | 1.16 | 1.17 | – | 1.13 | 1.11
CCACACUUCAAGCAAUCGGCU [Fam1B.1 aminoacylation ribozyme variant] | 1.64 | 1.75 | – | – | 1.56 | 1.96
CCACACUUCAAGCAGUCGGGC [Fam1B.1 aminoacylation ribozyme variant] | 1.88 | – | – | 1.52 | – | –
CCACACUUCACGCAAUCGCUC [Fam1B.1 aminoacylation ribozyme variant] | 1.78 | 1.14 | 1.42 | 1.35 | 1.37 | –
CCACACUUCAGCCAAUCGGUC [Fam1B.1 aminoacylation ribozyme variant] | 1.08 | 1.86 | – | – | 1.25 | 1.92
CCAGACUUCAAGCAAUCGGGC [Fam1B.1 aminoacylation ribozyme variant] | 1.53 | – | – | – | 1.98 | –
CCUCACUUCAAGCAAUCGGGC [Fam1B.1 aminoacylation ribozyme variant] | 1.33 | 1.59 | – | – | 1.81 | 1.59
CGACACUUCAAGCAAUCGGUG [Fam1B.1 aminoacylation ribozyme variant] | 1.81 | – | – | 1.71 | – | –
CGACACUUCAAGCAAUCGGUU [Fam1B.1 aminoacylation ribozyme variant] | 1.81 | 1.9 | 1.32 | – | 1.11 | 1.79
CUACUGCAAACAAUCGGUCCG [Fam1A.1 aminoacylation ribozyme variant] | – | 1.38 | 1.29 | 1.51 | 1.25 | 1.11
CUACUGCAAACAAUCGGUGUG [Fam1A.1 aminoacylation ribozyme variant] | – | 1.11 | 1.24 | 1.36 | 1.33 | 0.893
CUACUUCAAACAAUCGGACUC [Fam1A.1 aminoacylation ribozyme variant] | – | 0.675 | 0.624 | 2.57 | 0.563 | 0.7
CUACUUCAAACAAUCGGCCCG [Fam1A.1 aminoacylation ribozyme variant] | – | 1.34 | 1.23 | 1.9 | 1.46 | 1.25
CUACUUCAAACAUUCGGGCUG [Fam1A.1 aminoacylation ribozyme variant] | 1.65 | – | 1.81 | 1.65 | – | –
CUACUUCAGACAAUGGGUCUG [Fam1A.1 aminoacylation ribozyme variant] | – | 0.948 | 0.916 | 0.664 | 0.798 | 0.791
CUAGUUCAAACAUUCGGUCUG [Fam1A.1 aminoacylation ribozyme variant] | – | 1.38 | 1.31 | 0.958 | 1.46 | 1.56
CUCCAUCAAACAAUCGGUCUG [Fam1A.1 aminoacylation ribozyme variant] | – | 1.08 | 0.94 | 1.64 | 1.19 | 0.86
CUGCUUCAAACAAUCCGUCUG [Fam1A.1 aminoacylation ribozyme variant] | – | 0.844 | 0.819 | 1.89 | 0.756 | 0.891
CUGCUUCAAACAAUCGUUCUG [Fam1A.1 aminoacylation ribozyme variant] | – | 0.549 | 0.486 | 1.29 | 0.424 | 0.516
CUUCACCUAGGUCAUCGGGAG [Fam2.2 aminoacylation ribozyme variant] | 0.981 | 1.66 | 1.52 | – | 1.57 | 1.47
GAGUUUGCUAAUAGCCGCAAG [Fam3.1 aminoacylation ribozyme variant] | – | 1.45 | 1.78 | 1.89 | 1.35 | 1.35
GAGUUUGUUAAUAGUCGCAAG [Fam3.1 aminoacylation ribozyme variant] | – | 1.93 | 1.67 | 1.57 | 1.66 | 1.5
GUACUGCAAACAAUCGGUCUG [Fam1A.1 aminoacylation ribozyme variant] | – | 1.3 | 1.24 | 1.23 | 0.971 | 1.1
UAUUUUGCUAAUAGUCGCAAG [Fam3.1 aminoacylation ribozyme variant] | – | 1.75 | 1.31 | 1.47 | 1.65 | 1.52
UCACACUUCAAGCAAUCGCUC [Fam1B.1 aminoacylation ribozyme variant] | – | 1.43 | 1.3 | 1.45 | 1.46 | 1.32
UUACUCCAAACAAUCGGUCUG [Fam1A.1 aminoacylation ribozyme variant] | – | 0.908 | 0.992 | 2.69 | 0.825 | 0.977
UUUCACCUAGGUUAUCGGGUG [Fam2.2 aminoacylation ribozyme variant] | – | 2.92 | 3.72 | 4.62 | 3.71 | 2.93

Source: the supplement of paper PMC9233669
